Data source: PubChem BioAssay AID602196 (INSERM, 2012)
Screen: 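Knock-downs that protect lung cancer cells from cisplatin or sensitise them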. System: human A549 lung cancer cells. Reagents: siRNA pair against human genes. Timing: 48 h transfection before cisplatin; time from cisplatin to read-out not stated. Challenge: cisplatin at a dose killing half of control-siRNA cells; exact dose and duration not given. Detection: 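Cisplatin cell death as a shift from the 50% death seen with control siRNA; siRNAs toxic or growth-blocking alone scored 0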. Scale: two-siRNA summed score (-2 to +2): higher = both siRNAs protect from cisplatin killing; -2 means both sensitise. Call rule: 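siRNAs harmful alone (LDH or WST-1) get 0; others get +1 for less and -1 for more cisplatin killing; genes are active when the two siRNAs give the same sign, summing to ±2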. Calls: active = both siRNAs shift cisplatin killing the same way; inactive = no consistent shift, or siRNA harmful alone.
Shown is one part, drawn at random, of about 23,000 reagents. Over the whole deposit, 455 (2%) are marked active. 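Active includes both protection and sensitisation; some change values fall well beyond the stated -50 to +50 range.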 Entries without a mark were called inactive. Not all columns of the deposit are shown. Not stated in the record: the amount of reagent.

| gene symbol | two-siRNA summed score (-2 to +2) |
| --- | --- |
| ASTE1 (GeneID 28990) | 0 |
| DSCAML1 (GeneID 57453) | 0 |
| PPL (GeneID 5493) | 0 |
| SMARCAL1 (GeneID 50485) | -1 |
| EDN3 (GeneID 1908) | 0 |
| SKA3 (GeneID 221150) | 0 |
| CASC22 (GeneID 283854) | 0 |
| FLJ23529 | 0 |
| XRN2 (GeneID 22803) | 0 |
| MISP (GeneID 126353) | 0 |
| DTYMK (GeneID 1841) | 0 |
| VIPR2 (GeneID 7434) | 1 |
| LOC440916 | 1 |
| PLEKHN1 (GeneID 84069) | 0 |
| LOC440533 | 0 |
| UGT1A1 (GeneID 54658) | 0 |
| EVI2A (GeneID 2123) | 0 |
| GABPA (GeneID 2551) | 0 |
| LOC440359 | 0 |
| GALNT17 (GeneID 64409) | 0 |
| ARHGAP23 (GeneID 57636) | 0 |
| OR4L1 (GeneID 122742) | 0 |
| CHMP4A (GeneID 29082) | 0 |
| LOC161527 | 0 |
| IL20RB (GeneID 53833) | 0 |
| IRAK1 (GeneID 3654) | 0 |
| MED20 (GeneID 9477) | 0 |
| SNTB1 (GeneID 6641) | 0 |
| PIK3R1 (GeneID 5295) | 0 |
| CNOT9 (GeneID 9125) | 0 |
| PEX11G (GeneID 92960) | 0 |
| COX14 (GeneID 84987) | 0 |
| CEACAM1 (GeneID 634) | 0 |
| LOC339065 | 0 |
| RASL11A (GeneID 387496) | 0 |
| ZNF211 (GeneID 10520) | 1 |
| IGF2BP3 (GeneID 10643) | 0 |
| LOC389028 | 0 |
| VMA12 (GeneID 147007) | -1 |
| TRMT61B (GeneID 55006) | 0 |
| OLFM4 (GeneID 10562) | 0 |
| TMEM60 (GeneID 85025) | 0 |
| BORCS5 (GeneID 118426) | 0 |
| COBL (GeneID 23242) | 0 |
| ADAM33 (GeneID 80332) | 0 |
| RPE65 (GeneID 6121) | -2 (active) |
| PSG5 (GeneID 5673) | 0 |
| ETNPPL (GeneID 64850) | 0 |
| TMSB15B (GeneID 286527) | 1 |
| NDUFB10 (GeneID 4716) | 0 |
| LCK (GeneID 3932) | 0 |
| LOC440082 (retired record) (GeneID 440082) | 0 |
| SCN2A (GeneID 6326) | 0 |
| LOC442527 | 0 |
| MUC19 (GeneID 283463) | 0 |
| PRSS21 (GeneID 10942) | -1 |
| OR5K1 (GeneID 26339) | 0 |
